The text below walks through data of PMC9367404.

Sequences of proteins named here, by UniProt entry; tags and fusion partners are left off. A change or cut given only in a name is not applied to a line headed by its entry.
UniProt Q15746: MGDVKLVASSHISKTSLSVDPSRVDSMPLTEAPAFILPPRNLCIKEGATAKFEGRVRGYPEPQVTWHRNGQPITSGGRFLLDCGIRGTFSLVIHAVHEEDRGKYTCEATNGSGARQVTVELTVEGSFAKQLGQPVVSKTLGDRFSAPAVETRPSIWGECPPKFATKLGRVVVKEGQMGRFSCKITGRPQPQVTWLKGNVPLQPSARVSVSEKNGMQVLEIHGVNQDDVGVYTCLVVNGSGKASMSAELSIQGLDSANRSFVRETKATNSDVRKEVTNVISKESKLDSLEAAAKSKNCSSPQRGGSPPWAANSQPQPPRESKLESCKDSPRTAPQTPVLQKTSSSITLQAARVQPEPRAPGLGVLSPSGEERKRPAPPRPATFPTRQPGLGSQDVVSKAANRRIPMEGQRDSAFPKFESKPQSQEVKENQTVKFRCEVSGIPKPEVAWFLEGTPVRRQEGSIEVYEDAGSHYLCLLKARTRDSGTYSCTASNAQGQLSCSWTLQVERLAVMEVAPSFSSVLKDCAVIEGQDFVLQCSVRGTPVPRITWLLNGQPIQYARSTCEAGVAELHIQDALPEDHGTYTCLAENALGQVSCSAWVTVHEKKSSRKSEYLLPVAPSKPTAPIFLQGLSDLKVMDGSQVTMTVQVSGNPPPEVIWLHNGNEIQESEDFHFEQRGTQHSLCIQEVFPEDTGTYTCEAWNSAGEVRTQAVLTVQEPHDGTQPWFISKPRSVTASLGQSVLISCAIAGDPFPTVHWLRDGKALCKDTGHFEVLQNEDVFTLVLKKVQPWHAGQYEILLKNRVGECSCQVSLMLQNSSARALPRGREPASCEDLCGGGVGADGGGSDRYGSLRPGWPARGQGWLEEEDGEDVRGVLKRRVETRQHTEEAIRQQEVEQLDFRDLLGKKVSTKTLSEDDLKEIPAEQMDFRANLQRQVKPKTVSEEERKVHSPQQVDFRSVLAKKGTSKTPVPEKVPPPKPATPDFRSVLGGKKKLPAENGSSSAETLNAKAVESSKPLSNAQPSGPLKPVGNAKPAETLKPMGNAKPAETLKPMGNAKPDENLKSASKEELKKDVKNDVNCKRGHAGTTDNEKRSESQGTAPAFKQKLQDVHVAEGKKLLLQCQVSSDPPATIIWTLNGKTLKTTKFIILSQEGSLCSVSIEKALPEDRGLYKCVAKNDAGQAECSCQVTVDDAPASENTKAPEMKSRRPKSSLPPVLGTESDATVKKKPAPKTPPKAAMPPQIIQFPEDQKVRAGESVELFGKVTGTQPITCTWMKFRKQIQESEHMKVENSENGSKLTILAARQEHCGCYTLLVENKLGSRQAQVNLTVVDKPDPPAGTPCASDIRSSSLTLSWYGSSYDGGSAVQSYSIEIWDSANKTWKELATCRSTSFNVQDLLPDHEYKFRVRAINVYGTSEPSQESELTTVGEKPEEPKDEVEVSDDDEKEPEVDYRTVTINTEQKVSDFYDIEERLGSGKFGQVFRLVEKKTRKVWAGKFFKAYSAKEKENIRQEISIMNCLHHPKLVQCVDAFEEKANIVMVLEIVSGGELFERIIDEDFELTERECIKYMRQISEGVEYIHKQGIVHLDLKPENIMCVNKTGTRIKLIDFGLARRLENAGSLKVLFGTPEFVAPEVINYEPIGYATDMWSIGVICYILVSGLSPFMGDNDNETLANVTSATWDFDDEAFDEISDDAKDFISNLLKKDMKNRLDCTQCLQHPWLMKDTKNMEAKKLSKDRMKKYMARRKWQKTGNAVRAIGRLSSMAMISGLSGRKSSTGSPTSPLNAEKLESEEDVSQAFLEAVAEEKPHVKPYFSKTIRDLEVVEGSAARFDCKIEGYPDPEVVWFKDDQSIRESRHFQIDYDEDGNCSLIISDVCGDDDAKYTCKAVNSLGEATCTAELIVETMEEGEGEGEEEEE
UniProt P05556: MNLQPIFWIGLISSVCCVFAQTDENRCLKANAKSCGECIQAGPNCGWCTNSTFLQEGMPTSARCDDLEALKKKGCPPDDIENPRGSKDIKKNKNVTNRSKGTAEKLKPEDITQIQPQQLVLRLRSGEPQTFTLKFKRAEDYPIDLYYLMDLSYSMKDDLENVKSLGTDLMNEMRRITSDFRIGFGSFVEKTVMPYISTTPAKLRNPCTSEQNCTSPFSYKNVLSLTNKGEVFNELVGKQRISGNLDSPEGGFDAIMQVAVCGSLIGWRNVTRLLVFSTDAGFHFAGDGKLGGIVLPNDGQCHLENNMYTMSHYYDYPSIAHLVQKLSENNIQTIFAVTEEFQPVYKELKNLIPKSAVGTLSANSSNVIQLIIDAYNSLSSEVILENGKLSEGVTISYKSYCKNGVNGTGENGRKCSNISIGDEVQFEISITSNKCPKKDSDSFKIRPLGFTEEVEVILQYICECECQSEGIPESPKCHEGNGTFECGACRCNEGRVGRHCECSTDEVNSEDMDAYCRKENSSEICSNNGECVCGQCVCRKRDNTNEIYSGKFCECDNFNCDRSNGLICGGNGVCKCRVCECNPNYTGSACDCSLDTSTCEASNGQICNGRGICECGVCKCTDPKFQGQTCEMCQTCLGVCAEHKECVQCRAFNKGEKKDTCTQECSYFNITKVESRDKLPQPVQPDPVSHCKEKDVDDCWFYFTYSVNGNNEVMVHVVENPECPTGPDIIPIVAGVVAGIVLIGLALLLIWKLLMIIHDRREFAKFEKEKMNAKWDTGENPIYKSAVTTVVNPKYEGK

The target of the test is myosin light chain kinase (human (endogenous in HASM cells)) (UniProt Q15746). Description: co-IP; MLCK immunoprecipitated from precleared HASM cell extracts (antibody overnight, protein A/G PLUS agarose 3 h); washed four times in 50 mM Tris-HCl pH 7.6, 150 mM NaCl, 0.1% Triton X-100; immunoblot for integrin β1. On the technique in general: In western blotting, separated proteins are transferred to a membrane and probed.

Results are given in words; binding and its absence hold for the method and conditions named. Binding seen in cells or lysates may run through a third protein. Some results given as binding are weak or reduced against the parent protein; the word gives no strength.

As for “integrin β1 (from UniProt P05556 21-798) (receptor)”, the binding result is on record as “binds”.
